# Reference: article PMC7267773, “CCDC61/VFL3 Is a Paralog of SAS6 and Promotes Ciliary Functions” (Structure(London, England:1993), 2020)
# These are yes or no findings as the source states them, for the method shown. For some of these results: In cells and extracts the contact can be indirect. Some entries that bind do so weakly or less than the wild type. For some of these results: Where a sequence is shown, tags or fusion partners need not be part of it.
# T1: ^15N-labeled head domain of human SAS6^1-143 (human) (UniProt Q6UVJ0)
# T1 sequence (chain, 15N-labelled): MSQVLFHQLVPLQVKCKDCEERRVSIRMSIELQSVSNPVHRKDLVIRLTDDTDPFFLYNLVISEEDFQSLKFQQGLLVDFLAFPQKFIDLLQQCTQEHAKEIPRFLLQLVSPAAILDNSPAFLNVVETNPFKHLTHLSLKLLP
# Key:
# [1] = molecular target: hCCDC61^(1-457; F128E/D129A), GFP-tagged and 3xHA-tagged copies (human) (UniProt Q9Y6R9); assay: pull-down; GFP pulldown: GFP- and 3xHA-tagged constructs co-transfected in HEK293T; lysate in 50 mM Tris pH 7.4, 200 mM NaCl, 0.2% NP-40, 10% glycerol; GFP-nanobody resin, 4°C 90 min; western blot
# [2] = molecular target: hCCDC61^(1-457; F128E/D129A/5E), GFP-tagged and 3xHA-tagged copies (human) (UniProt Q9Y6R9); assay: as above
# [3] = molecular target: hCCDC61^(1-143; F128E/D129A) (human) (UniProt Q9Y6R9); assay: AUC; velocity sedimentation, approximately 480 μM (7.9 mg/ml), 20 mM Tris-HCl pH 8.0, 150 mM NaCl, 2 mM DTT, 50,000 rpm, 4°C; c(s) distribution; both purified
# [4] = molecular target: T1, ^15N-labeled head domain of human SAS6^1-143 (human); assay: condition: 48 μM of hCCDC61^1-143 with 56 μM of ^15N-labelled hSAS6^1-143; NMR titration; chemical shift perturbation, 2D 1H,15N BEST-Trosy of 56 μM 15N-labelled hSAS6^1-143 alone and with 48 μM hCCDC61^1-143; 20 mM Tris pH8.0, 150 mM NaCl, 2 mM DTT, 20°C; both purified
binder,measurement,setting,value
"hCCDC61^(1-457; F128E/D129A), GFP-tagged and 3xHA-tagged copies (domain or fragment, UniProt Q9Y6R9 1-457) MDQPAGLQVDYVFRGVEHAVRVMVSGQVLELEVEDRMTADQWRGEFDAGFIEDLTHKTGNFKQFNIFCHMLESALTQSSESVTLDLLTYTDLESLRNRKMGGRPGSLAPRSAQLNSKRYLILIYSVEEARIHYPLPLPYQGKPDPVVLQGIIRSLKEELGRLQGLDGQNTRDTRENEIWHLREQVSRLASEKRELEAQLGRSREEALAGRAARQEAEALRGLVRGLELELRQERGLGHRVAGRRGQDCRRLAKELEEAKASERSLRARLKTLTSELALYKRGRRTPPVQPPPTREDRASSSRERSASRGRGAARSSSRESGRGSRGRGRPARPSPSPTGGRALRFDPTAFVKAKERKQREIQMKQQQRNRLGSGGSGDGPSVSWSRQTQPPAALTGRGDAPNRSRNRSSSVDSFRSRCSSASSCSDLEDFSESLSRGGHRRRGKPPSPTPWSGSNMK",binding,[1],binds
"hCCDC61^(1-457; F128E/D129A/5E), GFP-tagged and 3xHA-tagged copies (domain or fragment, UniProt Q9Y6R9 1-457) MDQPAGLQVDYVFRGVEHAVRVMVSGQVLELEVEDRMTADQWRGEFDAGFIEDLTHKTGNFKQFNIFCHMLESALTQSSESVTLDLLTYTDLESLRNRKMGGRPGSLAPRSAQLNSKRYLILIYSVEEARIHYPLPLPYQGKPDPVVLQGIIRSLKEELGRLQGLDGQNTRDTRENEIWHLREQVSRLASEKRELEAQLGRSREEALAGRAARQEAEALRGLVRGLELELRQERGLGHRVAGRRGQDCRRLAKELEEAEASEESLEAELETLTSELALYKRGRRTPPVQPPPTREDRASSSRERSASRGRGAARSSSRESGRGSRGRGRPARPSPSPTGGRALRFDPTAFVKAKERKQREIQMKQQQRNRLGSGGSGDGPSVSWSRQTQPPAALTGRGDAPNRSRNRSSSVDSFRSRCSSASSCSDLEDFSESLSRGGHRRRGKPPSPTPWSGSNMK",binding,[2],binds
"hCCDC61^(1-143; F128E/D129A) (domain or fragment, UniProt Q9Y6R9 1-143) GSMDQPAGLQVDYVFRGVEHAVRVMVSGQVLELEVEDRMTADQWRGEFDAGFIEDLTHKTGNFKQFNIFCHMLESALTQSSESVTLDLLTYTDLESLRNRKMGGRPGSLAPRSAQLNSKRYLILIYSVEEARIHYPLPLPYQGKP",binding,[3],no binding (tested: approximately 480 μM (7.9 mg/ml))
"N-terminal head domain of human CCDC61 (hCCDC61^1-143) (domain or fragment, extra residues Gly-Ser left at the N-terminus after the His-GST tag was cleaved with tev protease; gene codon optimized for E. coli and synthesized; The crystal (PDB 6HXT) was of the seleno-methionine-substituted protein; also called hCCDC61 head domain; source: E. coli BL21(DE3), purified (GSTrap, tev cleavage, HisTrap flow through, HiTrap Q, PD-10); not shown: His tag, N-terminal, cleaved; GST, …) GSMDQPAGLQVDYVFRGVEHAVRVMVSGQVLELEVEDRMTADQWRGEFDAGFIEDLTHKTGNFKQFNIFCHMLESALTQSSESVTLDLLTYTDLESLRNRKMGGRPGSLAPRSAQLNSKRYLILIYSVEFDRIHYPLPLPYQGKP",binding,[4],no binding
